Data from the supplement of paper PMC7661543.
The effect of the compound repeats well; differences between the knockouts mostly do not.

System: MDA-MB-231
Assay: relative cell number vs DMSO control (72 h) (% of DMSO); higher = less growth inhibition (more cells)
Procedure: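 QMAP-Seq: a pool of 5 breast cancer cell lines (ZR-75-1, SKBR3, HCC-38, MDA-MB-231, BT-20), each carrying 12 doxycycline-inducible Cas9 sgRNA perturbations (11 knockouts plus non-targeting sgNT), was treated with compounds for 72 h at four 10-fold doses (10 nM-10 uM or 1 nM-1 uM range). Barcodes were amplified and sequenced, and cell number was interpolated from 293T spike-in standard curves. The result is expressed as % of the median of DMSO wells. Two biological replicates.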

N#Cc1ccc(COC[C@H]2O[C@@H](n3c(NCc4ccc(Cl)c(Cl)c4)nc4c(N)ncnc43)[C@H](O)[C@@H]2O)cc1
Conditions	relative cell number
sgRNA knockout: sgATF3, 10 nM	109
sgRNA knockout: sgATF3, 100 nM	83.8
sgRNA knockout: sgATF3, 1000 nM	89.6
sgRNA knockout: sgATF3, 10000 nM	27.9
sgRNA knockout: sgATF4, 10 nM	127
sgRNA knockout: sgATF4, 100 nM	78.3
sgRNA knockout: sgATF4, 1000 nM	86.5
sgRNA knockout: sgATF4, 10000 nM	39.9
sgRNA knockout: sgATF6, 10 nM	85.6
sgRNA knockout: sgATF6, 100 nM	72.3
sgRNA knockout: sgATF6, 1000 nM	87
sgRNA knockout: sgATF6, 10000 nM	30.8
sgRNA knockout: sgATG7, 10 nM	106
sgRNA knockout: sgATG7, 100 nM	99
sgRNA knockout: sgATG7, 1000 nM	78.5
sgRNA knockout: sgATG7, 10000 nM	39.7
sgRNA knockout: sgERN1, 10 nM	110
sgRNA knockout: sgERN1, 100 nM	102
sgRNA knockout: sgERN1, 1000 nM	106
sgRNA knockout: sgERN1, 10000 nM	28.7
sgRNA knockout: sgHSF1, 10 nM	89.2
sgRNA knockout: sgHSF1, 100 nM	97.7
sgRNA knockout: sgHSF1, 1000 nM	84.9
sgRNA knockout: sgHSF1, 10000 nM	20.6
sgRNA knockout: sgHSF2, 10 nM	77.6
sgRNA knockout: sgHSF2, 100 nM	84.1
sgRNA knockout: sgHSF2, 1000 nM	88.6
sgRNA knockout: sgHSF2, 10000 nM	31.7
sgRNA knockout: sgKEAP1, 10 nM	112
sgRNA knockout: sgKEAP1, 100 nM	99.3
sgRNA knockout: sgKEAP1, 1000 nM	98.6
sgRNA knockout: sgKEAP1, 10000 nM	31.3
sgRNA knockout: sgNFE2L2, 10 nM	102
sgRNA knockout: sgNFE2L2, 100 nM	105
sgRNA knockout: sgNFE2L2, 1000 nM	95.7
sgRNA knockout: sgNFE2L2, 10000 nM	35.8
sgRNA knockout: sgSLC35F2, 10 nM	97.8
sgRNA knockout: sgSLC35F2, 100 nM	120
sgRNA knockout: sgSLC35F2, 1000 nM	101
sgRNA knockout: sgSLC35F2, 10000 nM	24.5
sgRNA knockout: sgXBP1, 10 nM	95.2
sgRNA knockout: sgXBP1, 100 nM	114
sgRNA knockout: sgXBP1, 1000 nM	94.9
sgRNA knockout: sgXBP1, 10000 nM	34.1

COCC[n+]1c2c(n(Cc3cnccn3)c1C)C(=O)c1ccccc1C2=O [YM155]
Conditions	relative cell number
sgRNA knockout: sgATF3, 1 nM	75.3
sgRNA knockout: sgATF3, 10 nM	19.9
sgRNA knockout: sgATF3, 100 nM	6.11
sgRNA knockout: sgATF3, 1000 nM	4.11
sgRNA knockout: sgATF4, 1 nM	49.7
sgRNA knockout: sgATF4, 10 nM	35.6
sgRNA knockout: sgATF4, 100 nM	4.83
sgRNA knockout: sgATF4, 1000 nM	8.09
sgRNA knockout: sgATF6, 1 nM	54
sgRNA knockout: sgATF6, 10 nM	32.8
sgRNA knockout: sgATF6, 100 nM	9.02
sgRNA knockout: sgATF6, 1000 nM	6.24
sgRNA knockout: sgATG7, 1 nM	55.21
sgRNA knockout: sgATG7, 10 nM	23.4
sgRNA knockout: sgATG7, 100 nM	9.38
sgRNA knockout: sgATG7, 1000 nM	5.23
sgRNA knockout: sgERN1, 1 nM	58.5
sgRNA knockout: sgERN1, 10 nM	22.6
sgRNA knockout: sgERN1, 100 nM	4.82
sgRNA knockout: sgERN1, 1000 nM	4.88
sgRNA knockout: sgHSF1, 1 nM	63.8
sgRNA knockout: sgHSF1, 10 nM	26.1
sgRNA knockout: sgHSF1, 100 nM	4.66
sgRNA knockout: sgHSF1, 1000 nM	6.86
sgRNA knockout: sgHSF2, 1 nM	68.4
sgRNA knockout: sgHSF2, 10 nM	17.4
sgRNA knockout: sgHSF2, 100 nM	8.92
sgRNA knockout: sgHSF2, 1000 nM	5.33
sgRNA knockout: sgKEAP1, 1 nM	93.574
sgRNA knockout: sgKEAP1, 10 nM	26.7
sgRNA knockout: sgKEAP1, 100 nM	9.12
sgRNA knockout: sgKEAP1, 1000 nM	6.27
sgRNA knockout: sgNFE2L2, 1 nM	63.4
sgRNA knockout: sgNFE2L2, 10 nM	17.2
sgRNA knockout: sgNFE2L2, 100 nM	5.13
sgRNA knockout: sgNFE2L2, 1000 nM	6.63
sgRNA knockout: sgSLC35F2, 1 nM	97.4
sgRNA knockout: sgSLC35F2, 10 nM	119
sgRNA knockout: sgSLC35F2, 100 nM	66.8
sgRNA knockout: sgSLC35F2, 1000 nM	5.56
sgRNA knockout: sgXBP1, 1 nM	64.6
sgRNA knockout: sgXBP1, 10 nM	19.6
sgRNA knockout: sgXBP1, 100 nM	4.91
sgRNA knockout: sgXBP1, 1000 nM	5.15
